Assay results taken from publication PMC3916906.
These are yes or no findings as the source states them, for the method shown. For some of these results: In cells and extracts the contact can be indirect. Some results given as binding are weak or reduced against the parent protein; the word gives no strength.

By UniProt entry, the sequences of proteins in these tests, tags left out. Where a name states a change or a piece, a line headed by the entry shows the natural chain unless it says otherwise.
UniProt Q9UKV8: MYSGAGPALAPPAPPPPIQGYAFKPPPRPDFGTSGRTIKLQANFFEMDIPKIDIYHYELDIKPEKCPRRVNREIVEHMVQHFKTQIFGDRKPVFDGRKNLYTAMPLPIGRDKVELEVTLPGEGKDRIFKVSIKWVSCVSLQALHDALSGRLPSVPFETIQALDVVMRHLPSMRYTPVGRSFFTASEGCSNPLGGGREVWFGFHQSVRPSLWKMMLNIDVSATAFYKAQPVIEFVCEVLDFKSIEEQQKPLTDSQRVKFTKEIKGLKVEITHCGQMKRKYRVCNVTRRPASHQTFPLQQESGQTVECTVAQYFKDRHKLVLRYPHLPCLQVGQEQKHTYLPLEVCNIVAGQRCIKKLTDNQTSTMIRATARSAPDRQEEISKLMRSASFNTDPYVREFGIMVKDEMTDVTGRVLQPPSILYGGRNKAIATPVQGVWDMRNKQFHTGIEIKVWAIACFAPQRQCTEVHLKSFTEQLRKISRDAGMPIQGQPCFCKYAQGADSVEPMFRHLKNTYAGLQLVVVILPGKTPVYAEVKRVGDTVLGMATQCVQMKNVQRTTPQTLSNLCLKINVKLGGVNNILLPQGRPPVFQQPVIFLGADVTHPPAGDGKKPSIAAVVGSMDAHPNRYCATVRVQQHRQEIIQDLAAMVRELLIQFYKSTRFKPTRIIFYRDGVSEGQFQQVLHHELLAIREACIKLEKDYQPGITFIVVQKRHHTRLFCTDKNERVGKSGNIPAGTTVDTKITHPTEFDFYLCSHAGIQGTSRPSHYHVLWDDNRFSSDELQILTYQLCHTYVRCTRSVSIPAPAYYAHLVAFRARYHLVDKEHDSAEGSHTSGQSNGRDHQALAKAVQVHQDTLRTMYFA
UniProt Q8NDV7: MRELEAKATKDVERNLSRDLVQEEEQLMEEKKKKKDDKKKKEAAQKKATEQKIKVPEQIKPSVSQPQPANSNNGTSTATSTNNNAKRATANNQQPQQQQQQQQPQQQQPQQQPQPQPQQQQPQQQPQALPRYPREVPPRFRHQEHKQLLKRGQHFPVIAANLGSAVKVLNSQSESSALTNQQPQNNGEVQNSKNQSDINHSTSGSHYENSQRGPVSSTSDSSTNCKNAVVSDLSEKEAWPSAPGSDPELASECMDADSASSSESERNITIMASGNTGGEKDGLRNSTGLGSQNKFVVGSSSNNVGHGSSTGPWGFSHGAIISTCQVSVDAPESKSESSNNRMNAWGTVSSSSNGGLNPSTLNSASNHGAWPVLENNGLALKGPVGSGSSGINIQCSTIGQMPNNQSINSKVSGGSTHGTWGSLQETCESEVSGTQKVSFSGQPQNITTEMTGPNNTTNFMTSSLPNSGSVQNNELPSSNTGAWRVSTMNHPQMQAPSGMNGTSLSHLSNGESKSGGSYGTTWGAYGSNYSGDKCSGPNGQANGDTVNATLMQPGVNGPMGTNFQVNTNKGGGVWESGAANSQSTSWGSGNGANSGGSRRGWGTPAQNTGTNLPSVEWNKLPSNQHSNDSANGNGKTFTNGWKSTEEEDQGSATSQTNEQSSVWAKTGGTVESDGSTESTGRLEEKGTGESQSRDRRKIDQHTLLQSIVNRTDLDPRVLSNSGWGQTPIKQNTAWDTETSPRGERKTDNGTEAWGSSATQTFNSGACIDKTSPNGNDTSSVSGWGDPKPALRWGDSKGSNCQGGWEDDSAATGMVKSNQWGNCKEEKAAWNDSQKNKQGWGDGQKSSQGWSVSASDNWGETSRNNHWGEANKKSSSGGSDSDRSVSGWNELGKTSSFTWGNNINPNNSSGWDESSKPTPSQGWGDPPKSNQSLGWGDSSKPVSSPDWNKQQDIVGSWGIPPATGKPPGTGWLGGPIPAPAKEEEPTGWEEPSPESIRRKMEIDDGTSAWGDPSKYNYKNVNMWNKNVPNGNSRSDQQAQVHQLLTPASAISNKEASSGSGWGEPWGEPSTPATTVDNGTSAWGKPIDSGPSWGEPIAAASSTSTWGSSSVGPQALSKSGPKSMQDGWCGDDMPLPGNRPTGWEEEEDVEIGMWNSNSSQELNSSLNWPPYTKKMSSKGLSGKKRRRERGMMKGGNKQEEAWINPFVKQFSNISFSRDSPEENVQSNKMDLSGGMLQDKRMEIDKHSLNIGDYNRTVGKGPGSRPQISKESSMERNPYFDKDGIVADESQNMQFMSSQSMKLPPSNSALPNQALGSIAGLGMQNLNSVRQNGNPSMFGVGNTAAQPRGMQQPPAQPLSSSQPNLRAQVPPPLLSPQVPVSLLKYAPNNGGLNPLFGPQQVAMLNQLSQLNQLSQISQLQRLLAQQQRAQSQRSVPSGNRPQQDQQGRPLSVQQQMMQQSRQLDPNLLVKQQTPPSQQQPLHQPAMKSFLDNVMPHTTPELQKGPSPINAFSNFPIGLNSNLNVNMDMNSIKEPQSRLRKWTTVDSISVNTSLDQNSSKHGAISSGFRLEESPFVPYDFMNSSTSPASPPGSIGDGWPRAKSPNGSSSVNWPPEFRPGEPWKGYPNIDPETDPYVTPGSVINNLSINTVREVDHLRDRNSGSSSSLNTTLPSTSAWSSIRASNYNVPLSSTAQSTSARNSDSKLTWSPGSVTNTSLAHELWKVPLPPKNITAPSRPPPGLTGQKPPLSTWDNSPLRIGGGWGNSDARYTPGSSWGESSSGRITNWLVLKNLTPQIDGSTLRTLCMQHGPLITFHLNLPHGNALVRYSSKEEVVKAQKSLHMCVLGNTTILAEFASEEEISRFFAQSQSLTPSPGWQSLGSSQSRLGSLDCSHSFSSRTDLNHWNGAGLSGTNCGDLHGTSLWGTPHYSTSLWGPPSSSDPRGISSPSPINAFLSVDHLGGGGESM
UniProt Q9UPY3: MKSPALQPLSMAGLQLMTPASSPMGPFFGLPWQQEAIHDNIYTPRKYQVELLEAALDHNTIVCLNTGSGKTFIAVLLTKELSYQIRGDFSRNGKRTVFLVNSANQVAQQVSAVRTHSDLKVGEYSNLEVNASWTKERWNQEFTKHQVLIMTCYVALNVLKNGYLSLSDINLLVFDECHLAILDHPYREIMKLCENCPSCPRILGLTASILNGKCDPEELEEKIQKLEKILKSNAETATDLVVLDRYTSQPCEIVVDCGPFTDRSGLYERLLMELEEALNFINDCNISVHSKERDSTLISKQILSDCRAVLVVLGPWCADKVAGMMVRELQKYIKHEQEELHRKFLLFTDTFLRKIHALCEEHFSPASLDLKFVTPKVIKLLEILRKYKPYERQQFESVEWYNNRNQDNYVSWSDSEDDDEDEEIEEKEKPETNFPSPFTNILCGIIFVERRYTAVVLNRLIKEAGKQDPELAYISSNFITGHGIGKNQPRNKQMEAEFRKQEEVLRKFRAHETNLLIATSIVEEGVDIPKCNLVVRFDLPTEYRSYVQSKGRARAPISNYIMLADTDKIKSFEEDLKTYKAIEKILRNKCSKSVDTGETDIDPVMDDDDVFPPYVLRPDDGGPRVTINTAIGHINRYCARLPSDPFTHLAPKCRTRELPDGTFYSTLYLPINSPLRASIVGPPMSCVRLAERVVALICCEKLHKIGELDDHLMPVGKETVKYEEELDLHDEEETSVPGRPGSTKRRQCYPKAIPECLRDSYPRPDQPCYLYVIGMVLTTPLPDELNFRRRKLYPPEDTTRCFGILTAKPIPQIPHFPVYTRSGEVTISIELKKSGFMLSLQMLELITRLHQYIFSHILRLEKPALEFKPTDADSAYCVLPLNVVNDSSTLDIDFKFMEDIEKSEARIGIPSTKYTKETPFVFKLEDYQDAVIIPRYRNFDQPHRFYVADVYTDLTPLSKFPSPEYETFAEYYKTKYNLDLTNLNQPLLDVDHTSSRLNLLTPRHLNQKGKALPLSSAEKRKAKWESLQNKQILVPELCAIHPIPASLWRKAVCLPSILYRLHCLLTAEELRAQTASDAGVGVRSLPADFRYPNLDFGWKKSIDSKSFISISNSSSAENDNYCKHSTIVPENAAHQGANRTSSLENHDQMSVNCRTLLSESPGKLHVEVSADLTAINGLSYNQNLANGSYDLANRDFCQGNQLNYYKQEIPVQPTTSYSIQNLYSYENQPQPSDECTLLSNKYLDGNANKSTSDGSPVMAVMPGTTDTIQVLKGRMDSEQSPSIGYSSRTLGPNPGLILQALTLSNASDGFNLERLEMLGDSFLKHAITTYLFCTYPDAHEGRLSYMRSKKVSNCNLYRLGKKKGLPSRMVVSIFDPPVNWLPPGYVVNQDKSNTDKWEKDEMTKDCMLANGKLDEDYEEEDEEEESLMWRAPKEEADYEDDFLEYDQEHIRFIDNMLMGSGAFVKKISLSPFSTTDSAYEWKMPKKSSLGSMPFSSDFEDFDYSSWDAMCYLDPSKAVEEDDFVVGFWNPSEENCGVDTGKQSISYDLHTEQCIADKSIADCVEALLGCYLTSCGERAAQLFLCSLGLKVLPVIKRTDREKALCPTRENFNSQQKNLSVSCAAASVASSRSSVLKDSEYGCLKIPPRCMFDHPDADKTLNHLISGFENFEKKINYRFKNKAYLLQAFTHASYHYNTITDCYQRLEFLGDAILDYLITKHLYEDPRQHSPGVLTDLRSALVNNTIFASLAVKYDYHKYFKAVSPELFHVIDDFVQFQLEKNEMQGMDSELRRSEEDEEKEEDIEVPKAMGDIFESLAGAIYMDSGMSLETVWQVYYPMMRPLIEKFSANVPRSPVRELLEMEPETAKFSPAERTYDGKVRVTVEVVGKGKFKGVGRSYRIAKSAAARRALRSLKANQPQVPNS

Assays:
[1] = molecular target: Argonaute-2 (Ago2), endogenous (human (endogenous in HeLa and T47D)) (UniProt Q9UKV8); experiment: anion-exchange chromatography; high molecular weight size-exclusion fractions of HeLa nuclear extract concentrated and run on Mono-Q, linear gradient 0.1 to 1 M NaCl; fractions by Western blot
[2] = molecular target: Argonaute-2 (Ago2), endogenous (human (endogenous in HeLa and T47D)) (UniProt Q9UKV8); experiment: SEC; HeLa nuclear extract, treated with RNase A or SUPERase-In, on Superdex 200 HiLoad 16/60 in 20 mM Tris-HCl pH 7.5, 150 mM NaCl, 3 mM MgCl2, 5% glycerol; fractions by Western blot
[3] = molecular target: Argonaute-2 (Ago2), endogenous (human (endogenous in HeLa and T47D)) (UniProt Q9UKV8); experiment: co-IP; endogenous proteins from pre-cleared HeLa nuclear extract; Protein G Plus/Protein A resin and antibody, 4°C, 2-3 h; wash 20 mM Tris-HCl pH 7.5, 0.4 M NaCl, 2 mM MgCl2, 0.05% NP-40, 0.025% SDS; Western blot
[4] = molecular target: FLAG-HA-tagged Ago2 (FHA-Ago2) (human) (UniProt Q9UKV8); experiment: co-IP; anti-FLAG immunoprecipitation of FHA-Ago2 from nuclear extract of T47D cells stably expressing it; HeLa nuclear extract as negative control; Western blot
[5] = molecular target: Argonaute-2 (Ago2), endogenous (human (endogenous in HeLa and T47D)) (UniProt Q9UKV8); experiment: co-IP; T47D nuclear extract treated with RNase A (20 μg added before incubation); Protein G Plus/Protein A resin, 4°C, 2-3 h; Western blot

binding [1]	binding [2]	binding [3]	binding [4]	binding [5]	Substance
binds	binds	binds	binds	binds	TNRC6A (GW182 homolog), endogenous (from UniProt Q8NDV7 1-1962)
binds	binds	binds	binds	binds	Dicer, endogenous (from UniProt Q9UPY3 1-1922) (enzyme)
